From patent US20240336673A1 (WEST VIRGINIA UNIVERSITY BOARD OF GOVERNERS ON BEHALF OF …, published 2024)

Tests used:
Assay in all cases: ELISA on whole bacteria
[1] = biological target: Acinetobacter baumannii flagellin (Acinetobacter baumannii)
[2] = biological target: B. pertussis flagellin (Bordetella pertussis)
[3] = biological target: Enterobacter clocae flagellin (Enterobacter cloacae)
[4] = biological target: Escherichia coli flagellin (Escherichia coli)
[5] = biological target: S. marcescens flagellin (Serratia marcescens)
[6] = biological target: Salmonella enterica flagellin (Salmonella enterica)

Measured: binding

B1: WVDC-2109 (antibody, V domains shown)
VH: EVQLQESGAELVKPGASVKLSCKASGYTFTSYWMHWVKQRPGQGLEWIGMIRPNSGSTNYNEKFKSKATLTVDKSSSTAYMQLSSPTSEDSAVYYCARRGYGSSYGYYAMDYWGQGTSVTVSS
VL: DIVVTQTTSSLSASLGDRVTISCRASQDISNYLNWYQQKPDGTVKLLINYTSRLNSGVPSRFSGSGSGTDYSLTISNLEQEDIATYFCQQGNTLPWTFGGGTKLE
notes: also called anti-FliC mAb; mAb WVDC-2109
binds: all assays above

These are yes or no findings as the source states them, for the method shown. A result given as binding can be weak or reduced; the word gives no strength.
